Results: publication PMC7156110, “The MAPK substrate MASS proteins regulate stomatal development in Arabidopsis” (PLoS Genetics, 2020)

Target: T1, YDA^KI (kinase-inactive YDA, K429R), split-YFP fusion for BiFC (Arabidopsis thaliana) (UniProt Q9CAD5)
T1 sequence: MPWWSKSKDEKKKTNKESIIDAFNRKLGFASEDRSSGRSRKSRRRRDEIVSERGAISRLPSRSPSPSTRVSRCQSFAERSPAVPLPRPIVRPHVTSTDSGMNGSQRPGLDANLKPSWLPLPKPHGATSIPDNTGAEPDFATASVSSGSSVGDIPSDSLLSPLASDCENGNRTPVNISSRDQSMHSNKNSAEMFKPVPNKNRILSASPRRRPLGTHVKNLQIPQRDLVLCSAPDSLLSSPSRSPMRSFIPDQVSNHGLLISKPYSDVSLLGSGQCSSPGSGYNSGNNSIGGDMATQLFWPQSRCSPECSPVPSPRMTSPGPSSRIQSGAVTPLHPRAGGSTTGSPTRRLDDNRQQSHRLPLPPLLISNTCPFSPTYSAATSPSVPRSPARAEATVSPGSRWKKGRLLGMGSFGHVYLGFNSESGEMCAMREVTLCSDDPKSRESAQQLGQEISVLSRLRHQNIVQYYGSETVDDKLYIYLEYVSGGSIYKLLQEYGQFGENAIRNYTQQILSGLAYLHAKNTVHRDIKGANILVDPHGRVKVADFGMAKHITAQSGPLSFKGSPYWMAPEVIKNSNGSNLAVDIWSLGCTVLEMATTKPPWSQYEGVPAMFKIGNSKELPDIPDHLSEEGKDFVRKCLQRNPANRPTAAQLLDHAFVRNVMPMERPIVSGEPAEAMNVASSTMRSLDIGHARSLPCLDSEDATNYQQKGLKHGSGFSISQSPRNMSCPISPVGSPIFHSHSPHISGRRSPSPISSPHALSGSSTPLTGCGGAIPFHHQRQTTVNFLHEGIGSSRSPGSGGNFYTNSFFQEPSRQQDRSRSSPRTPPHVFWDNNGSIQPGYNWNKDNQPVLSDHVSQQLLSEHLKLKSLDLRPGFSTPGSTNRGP
Assay: split reporter; BiFC with split YFP in tobacco leaf epidermal cells; signal at the plasma membrane

binding: binds
Substance: MASS3, split-YFP fusion for BiFC (Arabidopsis thaliana)

These are yes or no findings as the source states them, for the method shown. In cells and extracts the contact can be indirect. A result given as binding can be weak or reduced; the word gives no strength. Tags and fused reporters may be left off the sequences shown.
